{"sequences": {"note": "By UniProt entry, the sequences of proteins in these tests, tags left out. Where a name states a change or a piece, a line headed by the entry shows the natural chain unless it says otherwise.", "UniProt Q01638": "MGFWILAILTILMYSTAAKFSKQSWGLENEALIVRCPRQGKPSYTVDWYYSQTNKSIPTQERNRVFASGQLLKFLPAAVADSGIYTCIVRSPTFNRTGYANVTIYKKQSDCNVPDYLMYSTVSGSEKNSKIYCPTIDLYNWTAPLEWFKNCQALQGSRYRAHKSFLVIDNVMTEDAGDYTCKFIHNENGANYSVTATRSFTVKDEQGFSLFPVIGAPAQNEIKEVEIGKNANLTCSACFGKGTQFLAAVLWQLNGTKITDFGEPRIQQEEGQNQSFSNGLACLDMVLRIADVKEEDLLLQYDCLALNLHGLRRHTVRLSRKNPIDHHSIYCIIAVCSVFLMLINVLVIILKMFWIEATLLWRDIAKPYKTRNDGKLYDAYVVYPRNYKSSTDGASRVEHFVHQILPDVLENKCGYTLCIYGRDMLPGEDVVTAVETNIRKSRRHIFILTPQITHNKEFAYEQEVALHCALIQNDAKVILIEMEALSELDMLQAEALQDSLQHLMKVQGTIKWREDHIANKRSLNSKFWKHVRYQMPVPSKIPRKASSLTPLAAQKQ"}, "source": "PubChem BioAssay AID1259354", "about": "(Paczesny and Yang Labs, IUPUI and University of Michigan, 2018)", "note": "The whole screen tested about 78,000 compounds, of which about 1,800 (2.3%) were called active. Inconclusive results, whose numbers are uncertain, are shown with a selection of clear calls. No stated cut-off is given here; in the data, active means inhibition above about 30%; inconclusive means mostly about 10% to 28%; inactive means weaker than that.", "data": [{"biological_target": "Interleukin-1 receptor-like 1 (Homo sapiens) (UniProt Q01638)", "test": "blocks human ST2 binding to IL-33, primary screen, biochemical, AlphaLISA (AID 1259354)", "settings": "AlphaLISA ST2-Fc/biotin-IL-33 interaction, 1 h; at 17 µM, stronger effect = higher value", "values": [{"smiles": "Cc1ccc2[nH]cc(-c3cc(N4CCN(C)CC4)nc(N)n3)c2c1", "inhibition": "inconclusive: 12%"}, {"smiles": "COc1cc2c(cc1-c1nccn1CC1CCCOC1)OCO2", "note": "(stereo not drawn)", "inhibition": "inconclusive: 14%"}, {"smiles": "CC(=O)C1=C(C)NC2=C(C(=O)CC(C)(C)C2)C1c1cccc([N+](=O)[O-])c1", "note": "(stereo not drawn)", "inhibition": "inconclusive: 10%"}, {"smiles": "CC(=O)c1cc(C(=O)N2CCC(c3nc(-c4ccncc4)ncc3-c3cccc(C)c3)CC2)cs1", "inhibition": "inconclusive: 16%"}, {"smiles": "O=C(O)c1ccccc1SC1CC(=O)N(c2ccccc2C(F)(F)F)C1=O", "note": "(stereo not drawn)", "inhibition": "inactive"}, {"smiles": "COCCNC[C@@H]1C=C(C)[C@H](Cc2nnc(-c3ccccc3)o2)C[C@H]1C(C)C", "inhibition": "inactive"}, {"smiles": "NC(=O)c1c(NC(=O)c2cc(C3CC3)on2)sc2c1CCCC2", "inhibition": "inactive"}, {"smiles": "Cc1ccnn1CC(=O)N1CCCC(CCc2ccccc2C(F)(F)F)C1", "note": "(stereo not drawn)", "inhibition": "inconclusive: 20%"}, {"smiles": "CCS(=O)(=O)c1ncc(CN2CCN3CCCC3C2)n1CCCc1ccccc1", "note": "(stereo not drawn)", "inhibition": "inconclusive: 10%"}, {"smiles": "COc1ncccc1C(=O)N1CC(c2ccncc2)C1", "inhibition": "inactive"}, {"smiles": "CCN(CC)C(=O)Cn1c(=O)n(CC(=O)NCc2ccco2)c(=O)c2sccc21", "inhibition": "inactive"}, {"smiles": "CCOc1ncccc1CNC(=O)C1Cc2ccccc2CN1CC", "note": "(stereo not drawn)", "inhibition": "inconclusive: 10%"}, {"smiles": "Cc1cccc(OCCn2ccnc2)c1C", "inhibition": "inconclusive: 10%"}, {"smiles": "NC(=O)c1ccc2c(c1)-c1ccccc1C2=O", "inhibition": "inconclusive: 24%"}, {"smiles": "Cc1ccc(C(=O)N2CCN(c3ccccc3[N+](=O)[O-])CC2)cc1", "inhibition": "inconclusive: 19%"}, {"smiles": "Cc1cccc2[nH]nc(-c3ccc(O)cc3)c12", "inhibition": "inconclusive: 11%"}, {"smiles": "CNC(=O)c1ccc(CNC(=O)Cc2c(C)[nH]c3c(C)ccc(C)c23)o1", "inhibition": "inconclusive: 11%"}, {"smiles": "CC(=O)c1[nH]c(C)c(C(=O)N2CCC3(CCCN(C)CC3)CC2)c1C", "inhibition": "inconclusive: 16%"}, {"smiles": "Cc1ccsc1CN(C)c1cc(N(C)C)ncn1", "inhibition": "inactive"}, {"smiles": "O=c1[nH]nc(C(O)c2ccccc2)n1Cc1cccs1", "note": "(stereo not drawn)", "inhibition": "inactive"}, {"smiles": "Cc1cccc(C(C)C)c1NS(=O)(=O)c1cc(Cl)ccc1Cl", "inhibition": "inconclusive: 11%"}, {"smiles": "O=C(Cn1ccc2ccccc2c1=O)NCC(=O)N1CCN(c2cccc(Cl)c2)CC1", "inhibition": "inactive"}, {"smiles": "CC(C)c1ccc(Nc2c(-c3ccc(O)cc3)nc3cnccn23)cc1", "inhibition": "inactive"}, {"smiles": "O=C(Cc1ccc(O)c(Cl)c1)NCc1cccnc1N1CCCCCCC1", "inhibition": "inactive"}, {"smiles": "CCc1ccc(CN(CC)Cc2ccc(OC)c(O)c2)cc1", "inhibition": "inconclusive: 10%"}, {"smiles": "COCC(=O)N1CCC(Oc2ccc(C(=O)N(C)Cc3cccs3)cc2)CC1", "inhibition": "inactive"}, {"smiles": "O=C(Nc1ccccc1C(=O)NCCN1CCOCC1)c1ccc(Cl)cc1Cl", "inhibition": "inactive"}, {"smiles": "O=C(c1ccccc1)c1cccc(N2C(=O)c3cccnc3C2=O)c1", "inhibition": "inactive"}]}]}
